Some results were stated once for a whole list of compounds, not compound by compound.
Tested on: DNA polymerase enzymes
Test: Chromatide incorporation activity after photodamage step on planar glass substrates
Assay type: biochemical
Details: Trolox at 1 mM, PPD at 100 mM
Description: In the experiment, DNA polymerase enzymes were immobilized on planar glass substrates (fused silica microscope slides) and subjected to reaction conditions under which DNA synthesis was taking place. Each reaction mixture also included a baseline level of photodamage mitigating agents (10 mM MEA-Ac, 0.1×GO-Cat, 25 mM Tris-Ascorbate). The reactions were carried out under laser illumination of varying power.
Following the photodamage step, all the solution was washed from the chip and replaced with ordinary buffers and dNTPs. In addition, a base labeled fluorescent nucleotide (chromatide) was added to provide a fluorescent signal of incorporation activity following the photodamage step, above. […] The activity of the enzyme was measured based upon the relative fluorescence of the DNA on the slide.
Table 1, below provides the percent chromatide relative to a non-illuminated control region, for each different additive at the listed laser power.

Cc1c(C)c2c(c(C)c1O)CCC(C)(C(=O)O)O2 (stereo not shown) [Trolox]
improvement over the baseline mixture: > 100%

Reference: patent publication US8415128B2, “Mitigation of photodamage in analytical reactions” (Pacific Biosciences of California, Inc., priority 2005, dated 2013)
